Measurements taken from the supplement of paper PMC8728848.
This is one part of the list.

How the values were obtained:
Experiment in all cases: glycan array binding signal (z-score within array); higher = stronger binding
Conditions in all cases: glycan notation: IUPAC condensed, linker removed
[1] = biological target: Fuc(a1-2)Gal
Outline: (§1)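 Negative Z-scores can be read as non-binding. The Z-score is calculated within each array and then averaged across arrays of one protein sequence at different concentrations or buffers and across linkers. Arrays, 3228 in all, were curated from the Consortium for Functional Glycomics database and kept only where the protein sequence was available.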

[2] = biological target: Fuc(a1-2)Gal(b1-3)GalNAc
Outline: as §1

[3] = biological target: Fuc(a1-2)Gal(b1-3)GalNAc(a1-3)[Fuc(a1-2)]Gal(b1-4)Glc
Outline: as §1

[4] = biological target: Fuc(a1-2)Gal(b1-3)GalNAc(a1-3)[Fuc(a1-2)]Gal(b1-4)GlcNAc
Outline: as §1

[5] = biological target: Fuc(a1-2)Gal(b1-3)GalNAc(b1-3)Gal
Outline: as §1

[6] = biological target: Fuc(a1-2)Gal(b1-3)GalNAc(b1-3)Gal(a1-4)Gal(b1-4)Glc
Outline: as §1

[7] = biological target: Fuc(a1-2)Gal(b1-3)GalNAc(b1-4)[Neu5Ac(a2-3)]Gal(b1-4)Glc
Outline: as §1

[8] = biological target: Fuc(a1-2)Gal(b1-3)GlcNAc
Outline: as §1

[9] = biological target: Fuc(a1-2)Gal(b1-3)GlcNAc(b1-2)Man(a1-3)[Fuc(a1-2)Gal(b1-3)GlcNAc(b1-2)Man(a1-6)]Man(b1-4)GlcNAc(b1-4)GlcNAc
Outline: as §1

[10] = biological target: Fuc(a1-2)Gal(b1-3)GlcNAc(b1-2)Man(a1-3)[Fuc(a1-2)Gal(b1-3)GlcNAc(b1-2)Man(a1-6)]Man(b1-4)GlcNAc(b1-4)[Fuc(a1-6)]GlcNAc
Outline: as §1

[11] = biological target: Fuc(a1-2)Gal(b1-3)GlcNAc(b1-3)Gal(b1-4)Glc
Outline: as §1

[12] = biological target: Fuc(a1-2)Gal(b1-3)GlcNAc(b1-3)GalNAc
Outline: as §1

[13] = biological target: Fuc(a1-2)Gal(b1-3)GlcNAc(b1-3)[Fuc(a1-2)Gal(b1-3)GlcNAc(b1-6)]GalNAc
Outline: as §1

[14] = biological target: Fuc(a1-2)Gal(b1-3)GlcNAc(b1-3)[Fuc(a1-3)[Gal(b1-4)]GlcNAc(b1-6)]Gal(b1-4)Glc
Outline: as §1

[15] = biological target: Fuc(a1-2)Gal(b1-3)GlcNAc(b1-3)[Gal(b1-4)GlcNAc(b1-6)]Gal(b1-4)Glc
Outline: as §1

[16] = biological target: Fuc(a1-2)Gal(b1-3)GlcNAc(b1-3)[Neu5Ac(a2-6)Gal(b1-4)GlcNAc(b1-6)]Gal(b1-4)Glc
Outline: as §1

[17] = biological target: Fuc(a1-2)Gal(b1-3)GlcNAc6S
Outline: as §1

[18] = biological target: Fuc(a1-2)Gal(b1-3)[Fuc(a1-4)]GlcNAc
Outline: as §1

[19] = biological target: Fuc(a1-2)Gal(b1-3)[Fuc(a1-4)]GlcNAc(b1-2)Man(a1-3)[Fuc(a1-2)Gal(b1-3)[Fuc(a1-4)]GlcNAc(b1-2)Man(a1-3)]Man(b1-4)GlcNAc(b1-4)GlcNAc
Outline: as §1

[20] = biological target: Fuc(a1-2)Gal(b1-3)[Fuc(a1-4)]GlcNAc(b1-2)Man(a1-3)[Fuc(a1-2)Gal(b1-3)[Fuc(a1-4)]GlcNAc(b1-2)Man(a1-6)]Man(b1-4)GlcNAc(b1-4)GlcNAc
Outline: as §1

[21] = biological target: Fuc(a1-2)Gal(b1-3)[Fuc(a1-4)]GlcNAc(b1-2)Man(a1-3)[Fuc(a1-2)Gal(b1-3)[Fuc(a1-4)]GlcNAc(b1-2)Man(a1-6)]Man(b1-4)GlcNAc(b1-4)[Fuc(a1-6)]GlcNAc(b1-4)[Fuc(a1-6)]GlcNAc
Outline: as §1

[22] = biological target: Fuc(a1-2)Gal(b1-3)[Fuc(a1-4)]GlcNAc(b1-3)[Fuc(a1-3)[Gal(b1-4)]GlcNAc(b1-6)]Gal(b1-4)Glc
Outline: as §1

[23] = biological target: Fuc(a1-2)Gal(b1-3)[Fuc(a1-4)]GlcNAc(b1-3)[Gal(b1-4)GlcNAc(b1-6)]Gal(b1-4)Glc
Outline: as §1

[24] = biological target: Fuc(a1-2)Gal(b1-4)Fuc(a1-3)]GlcNAc(b1-2)Man(a1-3)[Fuc(a1-2)Gal(b1-4)[Fuc(a1-3)]GlcNAc(b1-2)Man(a1-6)]Man(b1-4)GlcNAc(b1-4)GlcNAc
Outline: as §1

[25] = biological target: Fuc(a1-2)Gal(b1-4)Glc
Outline: as §1

[26] = biological target: Fuc(a1-2)Gal(b1-4)Glc6S
Outline: as §1

[27] = biological target: Fuc(a1-2)Gal(b1-4)GlcNAc
Outline: as §1

[28] = biological target: Fuc(a1-2)Gal(b1-4)GlcNAc(b1-2)Man
Outline: as §1

[29] = biological target: Fuc(a1-2)Gal(b1-4)GlcNAc(b1-2)Man(a1-3)[Fuc(a1-2)Gal(b1-4)GlcNAc(b1-2)Man(a1-6)]Man(b1-4)GlcNAc(b1-4)GlcNAc
Outline: as §1

[30] = biological target: Fuc(a1-2)Gal(b1-4)GlcNAc(b1-2)Man(a1-3)[Fuc(a1-2)Gal(b1-4)GlcNAc(b1-2)Man(a1-6)]Man(b1-4)GlcNAc(b1-4)[Fuc(a1-6)]GlcNAc
Outline: as §1

B1: GST-Gap1 (Streptococcus parasanguinis), A1C3L5 (protein)
chain: MFYFVPSWYNGQRQWYYDTPWWFRVKNRMTFDDSVNQVKMFLQGQEEIGLMILNYQPQLRYFLHKQNIFGIYYWSFFDDIQNITRSYTKIIHLKDLNWPEGCEFLYSPFAVVVRLKGEIFAIVNYAEDGNLHSVSFQKNGKVTKDYIFDDRGFLSSILYYDIDERPLYQDYLNINGVWQVREFLKKENDPTPILMINDFSDQTFSKKYYNGWEELIKERLAIFQNNHVENEDVFVLASDTQHNQLVSSIFKEHRKIYSFFGNRFNLENLGQDRISINDATFLVVDTEKNEELLRKTCENLVFKSIPIVRLSPFDSRLRLGHSQTVKEQIIYFHIDNIELDELYSVIAIILELMTLHLDIELRIVTFRQDFQLDLLKTWIIDFIKTNHFEDLLFKQISEGENEIEDEGEIELSRIAMECFTNENQIIKCLDTARLVIDLGIEPDLYTQIASISAGIPQINRVSSDYVIHQKNGLVISDISKLSSAIEFYFDGLFNWNEALIYAVRKMSDYTSGKILKQWKGMLKKK
[1]
  glycan array binding signal (z-score): 0.04
[2]
  glycan array binding signal (z-score): -0.117
[3]
  glycan array binding signal (z-score): -0.342
[4]
  glycan array binding signal (z-score): -0.335
[5]
  glycan array binding signal (z-score): 0.044
[6]
  glycan array binding signal (z-score): 0.159
[7]
  glycan array binding signal (z-score): -0.556
[8]
  glycan array binding signal (z-score): -0.221
[9]
  glycan array binding signal (z-score): 0.565
[10]
  glycan array binding signal (z-score): 0.252
[11]
  glycan array binding signal (z-score): -0.291
[12]
  glycan array binding signal (z-score): 0.373
[13]
  glycan array binding signal (z-score): -0.608
[14]
  glycan array binding signal (z-score): -0.458
[15]
  glycan array binding signal (z-score): 0.111
[16]
  glycan array binding signal (z-score): -0.503
[17]
  glycan array binding signal (z-score): 0.74
[18]
  glycan array binding signal (z-score): -0.311
[19]
  glycan array binding signal (z-score): 0.383
[20]
  glycan array binding signal (z-score): 0.607
[21]
  glycan array binding signal (z-score): -0.061
[22]
  glycan array binding signal (z-score): -0.816
[23]
  glycan array binding signal (z-score): -0.441
[24]
  glycan array binding signal (z-score): -0.849
[25]
  glycan array binding signal (z-score): -0.56
[26]
  glycan array binding signal (z-score): -0.122
[27]
  glycan array binding signal (z-score): 0.124
[28]
  glycan array binding signal (z-score): -0.936
[29]
  glycan array binding signal (z-score): 0.389
[30]
  glycan array binding signal (z-score): 0.411
